Test results taken from patent US20100280047A1, “SALTS OF ACTIVE INGREDIENTS WITH POLYMERIC COUNTER-IONS” (BASF SE, priority 2007, published 2010).
Read-outs that look alike come from different tables or passages of the source.

C(=C\c1ccccc1)/CN1CCN(C(c2ccccc2)c2ccccc2)CC1 [cinnarizine]
Concentration of dissolved cinnarizine (10% by wt. polymer A in water, stirred 72 h): 2800 µg/mL | Concentration of dissolved cinnarizine (10% by wt. polymer C in water, stirred 72 h): 4000 µg/mL | Concentration of dissolved cinnarizine (10% by wt. polymer D in water, stirred 72 h): 4100 µg/mL | Concentration of dissolved cinnarizine (20% by wt. polymer A in water, stirred 72 h): 9600 µg/mL | Concentration of dissolved cinnarizine (20% by wt. polymer C in water, stirred 72 h): 10100 µg/mL | Concentration of dissolved cinnarizine (20% by wt. polymer D in water, stirred 72 h): 10500 µg/mL | Concentration of dissolved cinnarizine (demineralized water, 0% polymer, stirred 72 h): 10 µg/mL | Concentration of dissolved cinnarizine (hydrochloric acid 10%, no polymer (cinnarizine hydrochloride is formed)): <790 µg/mL
